{"sequences": {"note": "Protein sequences, listed by entry. Tags and fused reporters are not part of them. Residues count along the entry.", "UniProt P35968, 20-764 limits assumed": "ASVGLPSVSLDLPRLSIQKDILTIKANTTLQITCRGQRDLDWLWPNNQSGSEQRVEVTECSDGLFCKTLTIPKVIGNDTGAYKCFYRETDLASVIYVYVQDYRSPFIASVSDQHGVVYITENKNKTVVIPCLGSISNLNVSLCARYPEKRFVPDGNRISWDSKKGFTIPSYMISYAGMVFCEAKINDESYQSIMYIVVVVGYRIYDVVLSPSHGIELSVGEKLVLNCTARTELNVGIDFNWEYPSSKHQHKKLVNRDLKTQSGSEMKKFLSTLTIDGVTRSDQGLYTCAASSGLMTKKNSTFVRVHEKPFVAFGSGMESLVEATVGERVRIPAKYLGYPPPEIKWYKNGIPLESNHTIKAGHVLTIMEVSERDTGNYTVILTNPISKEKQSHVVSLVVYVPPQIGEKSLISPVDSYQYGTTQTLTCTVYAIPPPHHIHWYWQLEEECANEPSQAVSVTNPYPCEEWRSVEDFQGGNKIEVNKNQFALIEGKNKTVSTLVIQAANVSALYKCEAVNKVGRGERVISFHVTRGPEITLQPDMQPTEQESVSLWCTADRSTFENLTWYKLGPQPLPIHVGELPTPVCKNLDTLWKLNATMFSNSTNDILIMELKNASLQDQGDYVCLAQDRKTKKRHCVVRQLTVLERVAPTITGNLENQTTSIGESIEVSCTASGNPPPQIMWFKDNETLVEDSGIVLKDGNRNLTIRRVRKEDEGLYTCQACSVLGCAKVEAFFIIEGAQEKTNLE"}, "source": "patent US9504738B2", "about": "“Immunogenic epitopes, peptidomimetics, and anti-peptide antibodies, and methods of their use” (Ohio State Innovation Foundation, priority 2010, dated 2016)", "key": {"[1]": {"biological_target": "T1, extracellular domain of VEGFR-2 (KDR-Fc) (Homo sapiens, UniProt P35968)", "T1 construct": "the extracellular domain of VEGFR-2(KDR-Fc) was injected as ligand; Fc; purchased R&D System", "assay": "Surface plasmon resonance (BIAcore 3000): KDR-Fc injected over immobilized VEGF mimic peptides", "conditions": "peptide immobilized on CM5 chip, 1:1 (Langmuir) model, read-out: equilibrium binding constant (KD), binding affinity", "description": "Surface Plasma Resonance. Binding assays were performed using a Biacore 3000 instrument (Pharmacia Bio-sensor, Uppsala, Sweden). The experiments were performed at room temperature using HBS-EP buffer (25 mM HEPES, pH 7.4, […], 3.4 mM EDTA, and 0.005% surfactant P20). Peptides were coupled onto CM5 chip surfaces at 10 μL/min using a standard amine coupling protocol with EDC (N-ethyl-N′-[dimethylaminopropyl]carbodiimide)/NHS (N-hydroxysuccinimide). KDR-Fc (R&D System) at several concentrations in HBS-EP buffer. Was injected at a flow rate of 10 μL/min. Data analysis was performed with BIAsimulation software version 3.1 (Pharmacia Biosensor). […] To obtain measurement of anti-peptides binding affinities similar a experiment was carried out, but rhVEGF was immobilized onto CM5 chip surface and anti-peptides were injected at several concentrations.\nConformational VEGF mimic peptide binds to VEGFR-2. Binding assay was carried out using BIAcore 3000 instrument. Designed VEGF mimic peptide VEGF-P3 (NC) and (CYC) were immobilized onto chip CM5 and the extracellular domain of VEGFR-2(KDR-Fc) was injected as ligand. […] Global analysis was performed with data points fitting to a simple 1:1 (Langmuir) binding model. The equilibrium binding constant (KD) takes Ka and Kd values in consideration and represents the binding affinity. […]"}, "HUVEC": {"tested_on": "HUVEC", "assay": "Network formation assay using Matrigel", "format": "cell-based, human", "conditions": "10 ng/ml VEGF"}}, "note": "Not every detail of the peptide structures is certain; ends, links or a residue may be inferred. For part of these data: At least one structure is not confirmed: it was looked up by name or label, or the drawing left a doubt.", "data": [{"smiles": "CC[C@H](C)[C@H](NC(C)=O)C(=O)N[C@H](C(=O)N[C@@H](CCSC)C(=O)N[C@@H](CCC(N)=O)C(=O)N[C@H]1CSSC[C@@H](C(=O)N[C@@H](CCC(=O)O)C(=O)N[C@@H](CCSC)C(=O)N[C@@H](CO)C(=O)N[C@@H](Cc2ccccc2)C(N)=O)NC(=O)[C@H]([C@@H](C)CC)NC(=O)[C@H](CCSC)NC(=O)[C@H](CCCNC(=N)N)NC(=O)[C@H]([C@@H](C)CC)NC(=O)[C@H](CCCCN)NC(=O)[C@@H]2CCCN2C(=O)[C@H](Cc2c[nH]cn2)NC(=O)[C@H](CCC(N)=O)NC(=O)CNC(=O)[C@H](CCC(N)=O)NC(=O)[C@H](Cc2c[nH]cn2)NC(=O)[C@H]([C@@H](C)CC)NC(=O)CNC1=O)[C@@H](C)O", "note": "[VEGF-P3(CYC)]", "values": [{"measurement": "Kd", "setting": "[1]", "result": 11, "unit": "nM"}, {"measurement": "inhibition of network formation in Matrigel", "setting": "HUVEC", "result": "largest inhibition"}]}, {"smiles": "CC[C@H](C)[C@H](NC(C)=O)C(=O)N[C@H](C(=O)N[C@@H](CCSC)C(=O)N[C@@H](CCC(N)=O)C(=O)N[C@@H](CS)C(=O)NCC(=O)N[C@H](C(=O)N[C@@H](Cc1c[nH]cn1)C(=O)N[C@@H](CCC(N)=O)C(=O)NCC(=O)N[C@@H](CCC(N)=O)C(=O)N[C@@H](Cc1c[nH]cn1)C(=O)N1CCC[C@H]1C(=O)N[C@@H](CCCCN)C(=O)N[C@H](C(=O)N[C@@H](CCCNC(=N)N)C(=O)N[C@@H](CCSC)C(=O)N[C@H](C(=O)N[C@@H](CS)C(=O)N[C@@H](CCC(=O)O)C(=O)N[C@@H](CCSC)C(=O)N[C@@H](CO)C(=O)N[C@@H](Cc1ccccc1)C(N)=O)[C@@H](C)CC)[C@@H](C)CC)[C@@H](C)CC)[C@@H](C)O", "note": "[VEGF-P3(NC)]", "values": [{"measurement": "Kd", "setting": "[1]", "result": 49, "unit": "nM"}]}]}
